Percent effect of library compounds

Sequences of proteins named here, by UniProt entry; tags and fusion partners are left off. Residues count along the entry.
UniProt I6X8D2, whole entry: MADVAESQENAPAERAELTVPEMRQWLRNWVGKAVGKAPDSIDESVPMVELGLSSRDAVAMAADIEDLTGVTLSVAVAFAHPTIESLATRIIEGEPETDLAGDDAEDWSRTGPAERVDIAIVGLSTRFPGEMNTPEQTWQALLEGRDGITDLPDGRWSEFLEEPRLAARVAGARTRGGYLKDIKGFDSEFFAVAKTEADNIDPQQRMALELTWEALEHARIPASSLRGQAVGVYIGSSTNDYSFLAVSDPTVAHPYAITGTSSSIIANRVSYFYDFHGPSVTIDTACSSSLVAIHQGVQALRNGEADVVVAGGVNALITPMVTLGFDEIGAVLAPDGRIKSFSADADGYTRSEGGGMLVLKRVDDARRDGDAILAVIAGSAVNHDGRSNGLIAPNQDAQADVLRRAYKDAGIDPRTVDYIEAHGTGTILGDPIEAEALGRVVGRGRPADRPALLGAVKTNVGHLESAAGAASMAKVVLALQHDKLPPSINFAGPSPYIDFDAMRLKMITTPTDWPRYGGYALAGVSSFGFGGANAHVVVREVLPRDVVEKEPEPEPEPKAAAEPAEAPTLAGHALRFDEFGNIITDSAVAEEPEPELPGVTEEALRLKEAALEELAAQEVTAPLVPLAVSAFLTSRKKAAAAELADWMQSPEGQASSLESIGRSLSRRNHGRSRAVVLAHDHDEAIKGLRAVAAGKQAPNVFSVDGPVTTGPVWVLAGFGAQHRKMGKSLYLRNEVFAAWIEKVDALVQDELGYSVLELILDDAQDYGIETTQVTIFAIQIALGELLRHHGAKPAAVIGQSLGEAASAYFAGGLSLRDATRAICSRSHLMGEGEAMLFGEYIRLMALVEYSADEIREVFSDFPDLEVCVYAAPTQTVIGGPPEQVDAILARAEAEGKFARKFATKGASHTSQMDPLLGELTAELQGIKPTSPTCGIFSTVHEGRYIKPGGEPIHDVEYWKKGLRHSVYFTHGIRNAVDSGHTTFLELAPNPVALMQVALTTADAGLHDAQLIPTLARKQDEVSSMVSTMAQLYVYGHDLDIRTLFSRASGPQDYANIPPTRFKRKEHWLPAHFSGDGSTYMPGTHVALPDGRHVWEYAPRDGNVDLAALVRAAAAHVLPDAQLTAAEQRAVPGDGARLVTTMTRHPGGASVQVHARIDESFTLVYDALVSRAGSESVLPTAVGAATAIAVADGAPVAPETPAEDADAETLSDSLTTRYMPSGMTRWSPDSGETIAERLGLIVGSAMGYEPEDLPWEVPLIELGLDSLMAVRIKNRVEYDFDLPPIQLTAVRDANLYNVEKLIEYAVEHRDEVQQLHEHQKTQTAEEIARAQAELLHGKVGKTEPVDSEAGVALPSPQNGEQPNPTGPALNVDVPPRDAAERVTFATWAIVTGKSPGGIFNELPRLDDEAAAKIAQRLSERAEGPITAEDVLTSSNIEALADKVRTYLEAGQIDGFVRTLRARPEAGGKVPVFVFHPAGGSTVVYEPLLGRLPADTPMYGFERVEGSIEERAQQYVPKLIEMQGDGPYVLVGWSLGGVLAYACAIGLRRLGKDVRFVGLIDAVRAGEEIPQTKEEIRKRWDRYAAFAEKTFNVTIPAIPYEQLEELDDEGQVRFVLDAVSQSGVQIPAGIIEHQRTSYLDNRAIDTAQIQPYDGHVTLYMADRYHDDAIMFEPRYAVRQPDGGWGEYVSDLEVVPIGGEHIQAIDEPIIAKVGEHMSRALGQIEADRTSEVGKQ
UniProt P9WFT3, whole entry: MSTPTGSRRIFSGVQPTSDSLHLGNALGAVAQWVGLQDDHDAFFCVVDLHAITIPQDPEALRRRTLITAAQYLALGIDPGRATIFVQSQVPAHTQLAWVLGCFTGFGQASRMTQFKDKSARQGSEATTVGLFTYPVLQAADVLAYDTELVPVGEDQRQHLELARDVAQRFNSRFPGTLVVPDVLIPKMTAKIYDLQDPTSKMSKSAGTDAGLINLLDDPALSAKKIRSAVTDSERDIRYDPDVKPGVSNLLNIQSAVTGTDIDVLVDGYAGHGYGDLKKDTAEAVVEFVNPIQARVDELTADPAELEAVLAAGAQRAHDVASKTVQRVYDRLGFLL
UniProt P9WNZ1, whole entry: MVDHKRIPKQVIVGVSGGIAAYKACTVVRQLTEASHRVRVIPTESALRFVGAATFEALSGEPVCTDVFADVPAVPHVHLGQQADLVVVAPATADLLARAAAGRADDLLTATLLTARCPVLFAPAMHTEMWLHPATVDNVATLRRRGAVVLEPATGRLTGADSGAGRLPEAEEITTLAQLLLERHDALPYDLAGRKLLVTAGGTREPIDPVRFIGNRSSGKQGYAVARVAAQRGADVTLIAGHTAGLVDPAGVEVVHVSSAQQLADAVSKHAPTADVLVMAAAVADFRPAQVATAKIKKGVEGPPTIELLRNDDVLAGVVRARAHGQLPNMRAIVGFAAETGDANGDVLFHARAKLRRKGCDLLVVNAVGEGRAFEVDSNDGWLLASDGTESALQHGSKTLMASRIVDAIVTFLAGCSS
UniProt Q8IDJ8, 1-583: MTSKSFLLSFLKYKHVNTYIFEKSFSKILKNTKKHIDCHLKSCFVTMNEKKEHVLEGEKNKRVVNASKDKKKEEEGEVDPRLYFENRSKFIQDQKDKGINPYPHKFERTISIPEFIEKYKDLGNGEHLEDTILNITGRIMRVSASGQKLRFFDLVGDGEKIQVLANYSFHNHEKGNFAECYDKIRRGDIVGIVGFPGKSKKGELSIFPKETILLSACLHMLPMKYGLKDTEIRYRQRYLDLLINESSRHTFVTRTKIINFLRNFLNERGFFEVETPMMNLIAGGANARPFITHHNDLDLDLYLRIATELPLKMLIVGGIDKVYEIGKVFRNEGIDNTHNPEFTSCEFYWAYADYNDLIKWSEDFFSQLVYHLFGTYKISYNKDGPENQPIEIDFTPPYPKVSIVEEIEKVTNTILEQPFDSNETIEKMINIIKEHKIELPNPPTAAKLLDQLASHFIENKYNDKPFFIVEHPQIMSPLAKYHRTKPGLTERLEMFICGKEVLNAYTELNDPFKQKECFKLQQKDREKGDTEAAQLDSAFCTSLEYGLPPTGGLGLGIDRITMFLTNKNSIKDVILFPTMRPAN

The values are deposited in ChEMBL (CHEMBL3988442, “University of Dundee, Small-Polar-MMV Screening Library” (2021)).

Each number is a percent effect as filed.
The controls that fix the scale are not given in the record; negative values are as filed.
This is an unselected part of the compounds tested.
A dash means the value is not listed here; it may have been measured.

Pks13 thioesterase: 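Enzyme assay of the thioesterase domain of polyketide synthase 13; the read-out is not stated. Target: Polyketide synthase Pks13, Mycobacterium tuberculosis (UniProt I6X8D2). Compounds at 30 µM. The record gives no direction; the compounds picked for IC50 retests had high values, so higher reads as stronger inhibition. About 67,000 compounds were tested under these conditions; 0.46% (about 300) showed 50% or more at least once.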
MtTrpRS: 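Enzyme assay of tryptophanyl-tRNA synthetase; the read-out is not stated. Target: Tryptophan-tRNA ligase, Mycobacterium tuberculosis (UniProt P9WFT3). Tested at 10 µM. Higher most likely means stronger inhibition; the record gives no direction and few retests gave an IC50. Of about 65,000 compounds tested this way, about 64 (0.098%) reached 50% or more in at least one test.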
CoaBC: 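Coenzyme A biosynthesis protein CoaBC, Mycobacterium tuberculosis (UniProt P9WNZ1). Enzyme assay of CoaBC with a phosphate dye (Biomol Green) read at 650 nm. Concentration: 30 µM. Higher reads as stronger inhibition, judged from the few compounds that gave an IC50. Most strong results did not repeat in a second test. Size under these conditions: about 67,000 compounds, about 40 of them at 50% or above in at least one test.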
PfKRS1: 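Enzyme assay of the cytosolic lysyl-tRNA synthetase in 384-well plates, read by luminescence. Target: Lysine-tRNA ligase, Plasmodium falciparum 3D7 (UniProt Q8IDJ8). Compounds at 30 µM. Direction is inferred from only a few compounds that gave an IC50; most scored high, so higher reads as stronger inhibition. Of about 69,000 compounds tested this way, about 49 (0.071%) reached 50% or more in at least one test.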

Compound,Pks13 thioesterase,MtTrpRS,CoaBC,PfKRS1
COc1ccc(C(=O)NCCCNc2ncccn2)c(OC)c1,-16.18%,-2.91%,0.861%,9.554%
COc1ccccc1OCCCN1CCNC1=O,-8.881%,-1.008%,5.583%,1.233%
CNC(=O)c1ccc(C2CN(C(=O)c3c[nH]nc3C)CCO2)nc1 (centres unmarked),15.22%,-,-1.716%,1.846%
O=C(CC1CCN(c2cccnn2)CC1)Nc1cccnc1,-3.363%,-2.185%,-2.427%,-1.1%
COc1ccc(CN(C)C2CCN(S(C)(=O)=O)CC2)c2cccnc12,0.0811%,2.27%,-,1.441%
CO[C@H]1CC[C@H]2[C@H]1OCCN2C(=O)CC1=CCCCC1,2.693%,-,0.6061%,18.15%
Cc1noc(C)c1CNCC1COCc2c(-c3ccsc3)nnn2C1 (centres unmarked),-11.35%,-2.525%,-3.462%,6.685%
Cc1nsc(NC(=O)NC2CCN(C)CC2)n1,15.52%,4.257%,5.405%,4.911%
Cc1n[nH]c(C2CN(C(=O)CCc3ccsc3)CCO2)n1 (centres unmarked),-6.138%,1.212%,-4.904%,-4.347%
Cc1cccc(CN2C[C@@H]3CCCO[C@@H]3[C@H](Nc3ccccn3)C2)n1,-13.23%,-7.895%,-15.8%,1.528%
Cc1cc(C(=O)NCc2ccc(F)cc2)nc(C2CCCN2C)n1 (centres unmarked),-3.935%,13.8%,3.337%,0.1216%
CC(C)(C)c1cnc(CN2CCN(c3ncccn3)CC2)o1,30.31%,4.595%,-0.6329%,8.712%
COc1ccc(NC(=O)c2ccc(-n3ncc(C#N)c3N)cc2)cn1,-13.43%,-0.236%,-2.057%,10.94%
CN(Cc1cccc(F)c1)C(=O)CN1CCCCC1Cn1cncn1 (centres unmarked),-12.69%,3.231%,7.273%,1.751%
CN(C)CCOCC1CN(C(=O)c2cccnc2)Cc2ccnn2C1 (centres unmarked),-27.41%,-0.9764%,4.886%,7.135%
CCOc1ccnc(N2CCN(C(=O)c3cccnc3O)CC2)n1,-26.65%,0.236%,-0.2571%,11.48%
CC(C)c1cc(C(=O)N2CCc3ccccc3C2C(=O)O)nn1C (centres unmarked),-23.2%,-0.289%,-9.13%,-1.865%
CC(=O)N1CCOC2(CCN(C(=O)C3CC3)CC2)C1,-11.42%,-,4.691%,4.386%
Cc1cc(NC2CCc3nc(C)nn3C2)n2ncnc2n1 (centres unmarked),-1.478%,6.941%,4.994%,2.043%
COc1cccc2ccc(CN3CCN(c4ncccc4C)CC3)nc12,-24.06%,1.358%,0%,4.041%
Cc1cc(C)n(C(=O)Cn2nc(C)c(I)c2C)n1,-6.48%,-,1.595%,5.211%
CSCC[C@@H](CO)n1ccnc1-c1ccc(C)o1,-0.5151%,0.8215%,0.4914%,8.957%
Cc1nc(C2CCCN2CC(=O)NCCOc2cccc(F)c2)no1 (centres unmarked),-33.93%,0.728%,0.2558%,-2.175%
N#Cc1cc(F)ccc1NCC1CCN(S(=O)(=O)C(F)F)CC1,-26.24%,-0.5727%,-0.1218%,0.3741%
Cc1nc(CN2CCCC(CCc3ccc(F)cc3F)C2)c[nH]1 (centres unmarked),-4.612%,3.759%,-34.21%,-1.452%
COc1cc(-c2ccc(F)c3c2OC(CN)C3)cc(OC)c1OC (centres unmarked),-25.86%,-4.152%,-22.75%,0%
O=C(CO[C@@H]1CC[C@H]2[C@H]1OCCN2Cc1ccccn1)N1CCCC1,-30.9%,6.695%,1.903%,-1.856%
COc1ccccc1CC(=O)N1CCCC(n2nc(C)cc2C)C1 (centres unmarked),-19.49%,-1.338%,-1.028%,5.7%
CCc1cnc(NCCCOC2CCCC2)nc1,-6.881%,0.9762%,5.144%,5.862%
COC(C)(C)CNC(=O)N(C)Cc1nc(-c2ccccc2)c[nH]1,16.08%,9.494%,-,0.5963%
COc1c(C2CCCN2C(=O)c2ccc(O)nc2)c(C)nn1C (centres unmarked),-8.405%,-0.2508%,3.394%,0.2574%
Cn1nc(-c2cccc(Cl)c2)c(Br)c1C(=O)O,-21.59%,-9.174%,-1.263%,6.716%
CC(C(=O)N1CCCN(c2ccc(C#N)cc2)CC1)n1ccnc1 (centres unmarked),-14.52%,2.044%,0.5319%,8.865%
COc1cccc([C@@H]2CN(C3CCCC3)C[C@H]2C(=O)O)c1,-4.126%,-1.857%,6.198%,7.173%
CC(C)Nc1nc(N2CCCC2)nc2c1CN(C(C)C)CC2,-11.46%,-5.771%,8.756%,3.512%
CCN(CC(C)C#N)C(=O)CNc1cc(Cl)ccc1C(N)=O (centres unmarked),26.72%,-1.161%,2.694%,2.675%
CC(C)c1nnc2n1CCN(C(=O)c1ccnc(N(C)C)c1)C2,-5.762%,-0.4223%,-1.173%,3.314%
CN(CCCc1cc(-c2cccc(F)c2)n[nH]1)C(=O)CCn1cncn1,-13.39%,-6.909%,2.657%,-0.7923%
NC(=O)CCSc1ccccc1NCc1ccc(Cl)s1,75.82%,6.684%,-1.921%,2.614%
CC1CCN(CCCNC(=O)Nc2cc3c(cc2Br)OCCO3)CC1,9.674%,0.2646%,-10.26%,1.97%
COc1c[nH]c(C(=O)N2CCN(c3ccccc3)CC2)cc1=O,-9.432%,-1.694%,-3.774%,2.683%
Cc1nnc(NCCn2nc(C)c(Cl)c2C)o1,0.5546%,-2.254%,6.71%,28.87%
CN(C)CC(=O)N1CCC2(CC(=O)N(c3cccc(C#N)c3)C2)C1 (centres unmarked),-9.343%,-3.547%,-0.9009%,-0.4512%
c1ccc(CNCC2Cn3nncc3CO2)nc1 (centres unmarked),-29.07%,-5.567%,10.78%,-2.283%
CC(C)OCCCNS(=O)(=O)c1ccc2c(c1)NC(=O)C(C)O2 (centres unmarked),-4.854%,-3.039%,-1.84%,1.531%
CC(C)CCN1CC2(CCN(C(=O)C3(C)CC3)CC2)OC1=O,-4.347%,-0.641%,-2.457%,0.3458%
CC(C)Oc1ccc(CN2CCC(Cc3nnc(CO)n3C)CC2)cc1,-10.02%,0.2018%,2.218%,2.544%
COc1ncc(-c2nccn2CCN(C)C)cn1,-13.91%,-3.483%,-4.051%,2.428%
CNC(=O)[C@@H]1C[C@H](N)CN1S(=O)(=O)c1cc(C)c(Cl)cc1C,-28.74%,-2.716%,5.967%,2.841%
Nc1cc(C(=O)N2C[C@H]3CC[C@@H]2CN(Cc2cccnc2)C3)ccn1,-26.98%,-2.716%,6.379%,5.123%
Cc1nn(CC(=O)n2cccn2)c(C)c1I,-20.47%,-,0.1227%,2.601%
CCCc1nc(C(=O)N(C)Cc2cc(CC)no2)cs1,-19.95%,-0.361%,-0.2049%,8.258%
CCCNC(=O)Nc1cccc2c1CCN(S(C)(=O)=O)C2,-27.69%,2.225%,3.914%,7.789%
COc1cc(CCC(=O)N2CCC(c3cncc(C)n3)CC2)on1,3.736%,-6.728%,-2.959%,2.179%
CC(=O)Nc1cc(Br)cnc1OCC(F)(F)F,-25.21%,5.932%,3.629%,0.2329%
CCC(c1nc(C(C)C)nn1-c1ccccn1)n1cccn1 (centres unmarked),-3.993%,-0.5455%,0%,3.693%
Cc1cnn(CC2CCCN2C(=O)c2ccc3[nH]nnc3c2)c1 (centres unmarked),-70.57%,5.556%,2.089%,0.2178%
CCOc1cccc(C(=O)N2C[C@H]3CC[C@@H]2CN(C(=O)C2CCC2)C3)c1,-10.9%,-2.246%,-2.292%,-1.459%

Repeated from the top, 6 entries:

{"compound": "COc1ccc(C(=O)NCCCNc2ncccn2)c(OC)c1", "Pks13 thioesterase": -16.18, "MtTrpRS": -2.91, "CoaBC": 0.861, "PfKRS1": 9.554}
{"compound": "COc1ccccc1OCCCN1CCNC1=O", "Pks13 thioesterase": -8.881, "MtTrpRS": -1.008, "CoaBC": 5.583, "PfKRS1": 1.233}
{"compound": "CNC(=O)c1ccc(C2CN(C(=O)c3c[nH]nc3C)CCO2)nc1", "stereo": "centres unmarked", "Pks13 thioesterase": 15.22, "CoaBC": -1.716, "PfKRS1": 1.846}
{"compound": "O=C(CC1CCN(c2cccnn2)CC1)Nc1cccnc1", "Pks13 thioesterase": -3.363, "MtTrpRS": -2.185, "CoaBC": -2.427, "PfKRS1": -1.1}
{"compound": "COc1ccc(CN(C)C2CCN(S(C)(=O)=O)CC2)c2cccnc12", "Pks13 thioesterase": 0.0811, "MtTrpRS": 2.27, "PfKRS1": 1.441}
{"compound": "CO[C@H]1CC[C@H]2[C@H]1OCCN2C(=O)CC1=CCCCC1", "Pks13 thioesterase": 2.693, "CoaBC": 0.6061, "PfKRS1": 18.15}